Results published in paper PMC8989081.
No constants are given. Whether binding was seen depends on the method and setting. Binding seen in cells or lysates may run through a third protein. Some results given as binding are weak or reduced against the parent protein; the word gives no strength. For some of these results: Sequences can lack the tags named with a protein. One block for each molecule: values may come before it.

Protein sequences, listed by entry. Tags and fused reporters are not part of them.
UniProt O96028: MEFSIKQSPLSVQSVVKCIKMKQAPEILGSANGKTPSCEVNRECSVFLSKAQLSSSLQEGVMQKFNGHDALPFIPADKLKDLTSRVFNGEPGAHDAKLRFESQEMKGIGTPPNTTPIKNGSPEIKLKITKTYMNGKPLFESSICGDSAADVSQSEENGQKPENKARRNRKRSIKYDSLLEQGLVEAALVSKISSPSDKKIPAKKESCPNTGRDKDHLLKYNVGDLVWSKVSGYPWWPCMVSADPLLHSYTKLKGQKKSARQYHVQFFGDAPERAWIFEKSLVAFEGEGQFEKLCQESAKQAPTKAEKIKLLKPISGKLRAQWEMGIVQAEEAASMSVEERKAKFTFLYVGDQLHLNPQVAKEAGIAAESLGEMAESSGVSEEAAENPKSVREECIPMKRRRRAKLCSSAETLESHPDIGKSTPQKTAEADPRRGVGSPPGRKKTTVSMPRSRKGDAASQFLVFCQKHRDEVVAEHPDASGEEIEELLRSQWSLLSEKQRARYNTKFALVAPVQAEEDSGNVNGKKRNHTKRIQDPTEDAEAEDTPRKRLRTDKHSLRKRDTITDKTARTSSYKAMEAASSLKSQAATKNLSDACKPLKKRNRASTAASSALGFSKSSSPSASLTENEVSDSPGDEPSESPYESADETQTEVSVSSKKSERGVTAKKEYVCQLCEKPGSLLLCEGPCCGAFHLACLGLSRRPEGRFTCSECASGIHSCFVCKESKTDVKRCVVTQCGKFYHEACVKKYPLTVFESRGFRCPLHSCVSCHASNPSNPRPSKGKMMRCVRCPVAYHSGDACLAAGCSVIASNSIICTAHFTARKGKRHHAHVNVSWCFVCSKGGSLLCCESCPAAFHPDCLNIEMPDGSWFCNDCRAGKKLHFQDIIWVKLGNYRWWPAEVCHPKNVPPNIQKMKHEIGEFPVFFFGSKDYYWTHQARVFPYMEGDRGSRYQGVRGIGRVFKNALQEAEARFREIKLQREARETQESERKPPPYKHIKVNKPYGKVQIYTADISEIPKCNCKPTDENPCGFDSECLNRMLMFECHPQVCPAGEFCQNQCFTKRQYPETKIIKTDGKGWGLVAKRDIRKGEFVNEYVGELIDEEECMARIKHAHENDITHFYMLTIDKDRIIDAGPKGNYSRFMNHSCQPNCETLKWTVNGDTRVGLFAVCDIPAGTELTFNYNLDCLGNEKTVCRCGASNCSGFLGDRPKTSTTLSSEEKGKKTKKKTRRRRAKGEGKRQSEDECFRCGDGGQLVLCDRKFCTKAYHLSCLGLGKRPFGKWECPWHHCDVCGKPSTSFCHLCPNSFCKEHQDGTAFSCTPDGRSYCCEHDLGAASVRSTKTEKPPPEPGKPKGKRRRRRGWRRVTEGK

How the values were obtained:
Aurora A-Flag = biological target: T1, Aurora A-Flag (UniProt O14965); assay: co-IP; exogenous tagged proteins in transfected HEK293T cells; NP-40 buffer; anti-FLAG M2 affinity gel; western blot; both tag arrangements
T1 sequence: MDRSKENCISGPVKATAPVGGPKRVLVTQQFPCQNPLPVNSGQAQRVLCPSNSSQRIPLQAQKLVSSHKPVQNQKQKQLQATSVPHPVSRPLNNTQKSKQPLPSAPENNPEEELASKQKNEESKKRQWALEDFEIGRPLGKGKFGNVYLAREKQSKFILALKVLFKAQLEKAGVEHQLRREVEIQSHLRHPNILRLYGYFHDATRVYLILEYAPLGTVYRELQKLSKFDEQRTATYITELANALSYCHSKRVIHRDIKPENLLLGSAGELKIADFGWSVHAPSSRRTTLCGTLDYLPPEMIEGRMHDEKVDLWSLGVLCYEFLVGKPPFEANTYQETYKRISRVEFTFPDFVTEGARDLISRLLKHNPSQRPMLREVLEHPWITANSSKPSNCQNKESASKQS

[1] = biological target: T2, GST-Aurora A fusion protein (UniProt O14965); assay: pull-down; GST-Aurora A from BL21 on glutathione agarose beads; HA-NSD2 from HEK-293T cells; blots with HA antibody and Aurora A antibody; only the target purified
T2 sequence: T1 sequence

[2] = biological target: NSD2 (human (endogenous in LP-1 and MM.1S)) (UniProt O96028); assay: co-IP; endogenous proteins in LP-1 and MM.1S cells; lysate supernatant in NP-40 buffer with the corresponding antibody, then protein G dynabeads, 4°C overnight; western blot
NSD2-Flag = NSD2-Flag (UniProt O96028); assay: co-IP; exogenous tagged proteins in transfected HEK293T cells; NP-40 buffer; anti-FLAG M2 affinity gel; western blot; both tag arrangements

binding (Aurora A-Flag): binds | binding [1]: binds
Molecule: NSD2-HA (from UniProt O96028 1-1365)

binding [2]: binds
B1: Aurora kinase A (protein, UniProt O14965 1-403)
chain: T1 sequence

binding (NSD2-Flag): binds
B2: Aurora A-HA (protein, UniProt O14965 1-403)
chain: T1 sequence
